The assay deals with T1, USP (ultraspiracle), endogenous in aff3 cells (Bombyx mori (endogenous in aff3)) (UniProt P49700).
T1 sequence: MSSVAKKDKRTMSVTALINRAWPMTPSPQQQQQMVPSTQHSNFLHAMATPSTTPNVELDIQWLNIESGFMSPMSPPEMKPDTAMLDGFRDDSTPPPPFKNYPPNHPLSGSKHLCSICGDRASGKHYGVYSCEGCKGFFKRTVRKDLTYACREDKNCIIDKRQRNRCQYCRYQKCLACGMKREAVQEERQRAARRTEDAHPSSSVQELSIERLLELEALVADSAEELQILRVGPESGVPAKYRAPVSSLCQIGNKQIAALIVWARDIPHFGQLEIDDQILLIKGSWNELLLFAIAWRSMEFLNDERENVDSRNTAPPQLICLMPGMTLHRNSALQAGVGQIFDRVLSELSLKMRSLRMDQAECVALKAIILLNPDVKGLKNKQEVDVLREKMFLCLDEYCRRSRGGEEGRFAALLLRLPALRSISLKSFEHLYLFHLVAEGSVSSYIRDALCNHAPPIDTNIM
The experiment in a line: native gel or EMSA; super shift assay: whole-cell extracts of aff3 cells overexpressing V5-tagged EcR-A or EcR-B1 incubated with 32P probes (BmEcRB1-E1, BmE75A-EcRE, BHR3B-EcRE) 20 min on ice, then anti-V5 and anti-USP antibodies together 1.5 h on ice; 4% polyacrylamide gel; both proteins found in one protein-DNA complex (super-shift2).

Results are given in words; binding and its absence hold for the method and conditions named. Some results given as binding are weak or reduced against the parent protein; the word gives no strength. Sequences can lack the tags named with a protein.

B1: BmEcR-B1 tagged with a V5 antigen (B1^T) (receptor, UniProt P49881 1-606)
chain: MRVENVDNVSFALNGRADEWCMSVETRLDSLVREKSEVKAYVGGCPSVITDAGAYDALFDMRRRWSNNGGFPLRMLEESSSEVTSSSALGLPPAMVMSPESLASPEYRALELWSYDDGITYNTAQSLLGACNMQQQQLQPQQPHPAPPTLPTMPLPMPPTTPKSENESMSSGREELSPASSINGCSADADARRQKKGPAPRQQEELCLVCGDRASGYHYNALTCEGCKGFFRRSVTKNAVYICKFGHACEMDMYMRRKCQECRLKKCLAVGMRPECVIQEPSKNKDRQRQKKDKGILLPVSTTTVEDHMPPIMQCDPPPPEAARIHEVVPRYLSEKLMEQNRQKNIPPLSANQKSLIARLVWYQEGYEQPSDEDLKRVTQTWQSDEEDEESDLPFRQITEMTILTVQLIVEFAKGLPGFSKISQSDQITLLKASSSEVMMLRVARRYDAASDSVLFANNKAYTRDNYRQGGMAYVIEDLLHFCRCMFAMGMDNVHFALLTAIVIFSDRPGLEQPSLVEEIQRYYLNTLRIYIINQNSASSRCAVIYGRILSVLTELRTLGTQNSNMCISLKLKNRKLPPFLEEIWDVAEVATTHPTVLPPTNPVVL
Take B1: the binding entry is given as “binds”.

For the origin of these results see PMC3498158.
